The record followed here is the supplement of paper PMC12823440, “Inhibitors supercharge kinase turnover through native proteolytic circuits” (Nature, 2025).

Protein sequences, listed by entry. Tags and fused reporters are not part of them. Lines headed by an entry give the natural chain unless they say otherwise; changes in a name come on top.
UniProt P53667: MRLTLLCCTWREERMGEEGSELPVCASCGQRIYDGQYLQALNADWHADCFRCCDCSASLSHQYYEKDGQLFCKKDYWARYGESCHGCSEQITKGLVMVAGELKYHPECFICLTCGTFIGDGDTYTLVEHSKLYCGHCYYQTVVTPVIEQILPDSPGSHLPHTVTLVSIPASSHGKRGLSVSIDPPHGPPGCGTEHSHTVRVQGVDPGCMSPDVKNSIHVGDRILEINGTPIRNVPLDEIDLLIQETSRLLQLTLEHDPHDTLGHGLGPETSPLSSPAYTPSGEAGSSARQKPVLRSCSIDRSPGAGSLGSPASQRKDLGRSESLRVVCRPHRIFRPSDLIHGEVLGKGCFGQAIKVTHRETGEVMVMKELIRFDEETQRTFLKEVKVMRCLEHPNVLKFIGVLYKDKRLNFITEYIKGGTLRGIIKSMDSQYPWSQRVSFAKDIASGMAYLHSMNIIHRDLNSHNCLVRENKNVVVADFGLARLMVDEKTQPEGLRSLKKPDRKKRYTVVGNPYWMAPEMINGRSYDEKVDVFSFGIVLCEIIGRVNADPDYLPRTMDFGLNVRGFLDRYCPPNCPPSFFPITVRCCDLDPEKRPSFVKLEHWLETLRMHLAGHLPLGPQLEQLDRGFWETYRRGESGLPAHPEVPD
UniProt P53671: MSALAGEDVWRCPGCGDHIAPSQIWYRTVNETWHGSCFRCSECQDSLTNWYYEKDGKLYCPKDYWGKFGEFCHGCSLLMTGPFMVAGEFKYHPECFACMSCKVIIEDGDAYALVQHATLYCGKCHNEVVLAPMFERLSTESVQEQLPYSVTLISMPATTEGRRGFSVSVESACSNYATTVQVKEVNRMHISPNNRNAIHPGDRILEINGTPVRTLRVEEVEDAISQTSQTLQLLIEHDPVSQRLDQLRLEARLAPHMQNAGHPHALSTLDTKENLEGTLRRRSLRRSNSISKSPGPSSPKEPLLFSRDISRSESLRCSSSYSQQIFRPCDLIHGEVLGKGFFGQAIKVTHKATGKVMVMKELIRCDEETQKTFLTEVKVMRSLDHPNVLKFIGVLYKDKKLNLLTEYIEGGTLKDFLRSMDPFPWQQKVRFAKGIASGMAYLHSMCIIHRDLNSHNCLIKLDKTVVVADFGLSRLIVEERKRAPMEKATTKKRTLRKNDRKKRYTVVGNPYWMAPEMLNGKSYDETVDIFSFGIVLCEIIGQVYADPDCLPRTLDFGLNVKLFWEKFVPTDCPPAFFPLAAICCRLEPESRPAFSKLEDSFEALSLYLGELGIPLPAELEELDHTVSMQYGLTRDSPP

Structures can show the parent of a compound that is named as a salt. Some of the results follow. The calls rarely recur for the same compound in another form.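 In K562 cells expressing nanoluciferase-fused kinases, luminescence was recorded at 4 h intervals between 2 and 18 h, normalized as percent of control with DMSO at 100% and a positive control at 0%. A significant (2 sigma) signal drop marks a time point as decreased. The authors' rule for a hit is not shown and takes in more than the number of time points.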

One assay concerns the target LIMK1 (UniProt P53667). The experiment in a line: number of time points (of 5) at which kinase-Nluc abundance scored as decreased, DMSO-normalised (count); higher = more persistent destabilization. Conditions: K562; 2-18 h.
Take `Fc1c(Br)cccc1Nc1ncnc2cc3c(cc12)OCCO3` (2.5 µM): the “number of time points” value was 0.

As for `CN(C)c1ncnc2nc[nH]c12` [6-(Dimethylamino)purine] (10 µM), the “number of time points” value is 0.

`CN(C)Cc1cccc(N=C(c2ccccc2)c2c(O)[nH]c3cc(C(=O)N(C)C)ccc23)c1` (10 µM): the “number of time points” value came out at 0.

As for `Cn1cc(-c2ccc3nnc(C(F)(F)c4ccc5ncccc5c4)n3n2)cn1` (10 µM), the “number of time points” value is 0.

Another assay concerns the target LIMK2 (UniProt P53671). The description is as above. Conditions: K562; 2-18 h.
Take `CC(C)c1ccc(CC(=O)N2CCN(c3ccc(C#N)nn3)CC2)cc1` (10 µM): the “number of time points” value came to 0.

`C=CC(=O)N1CCC[C@@H](n2nc(C(=O)Nc3ccc(CC(=O)N(C)C)c(C)c3C)c3c(N)ncnc32)C1` (10 µM): the “number of time points” value is 0.

`O=C(O)CCc1ccc(NCc2cccc(Oc3ccccc3)c2)cc1` (10 µM): the “number of time points” value was determined as 0.

Regarding `CCc1c(C)sc(NC(=S)NC(=O)c2ccc(Cl)cc2)c1C(N)=O` (10 µM), the “number of time points” value was found to be 0.

For the compound `C=CC(=O)Nc1cccc(-n2c(=O)cc(C)c3cnc(Nc4ccc(OCCN(C)C)cc4OC)nc32)c1` (10 µM), the “number of time points” value is 0.

In the case of `C=C(F)C(=O)N1CCN(c2nc(OC[C@@H]3CCCN3C)nc3c2CCN(c2cccc4cccc(Cl)c24)C3)C[C@@H]1CC#N` (2.5 µM), the “number of time points” value was found to be 0.

With `COc1ncc(Nc2ncc([C@@H](C)N3CCN(S(C)(=O)=O)CC3)cc2-c2nc(C)nc(N)n2)cc1F` (10 µM), the “number of time points” value came to 0.

Turning to `COc1ccc2c(c1OC)OC1c3ccc(O)cc3OCC21` (configuration not stated) [Methylnissolin] (10 µM), the “number of time points” value came out at 0.

As for `O=C(CO)N1CCC(c2n[nH]c(-c3ccc(Cl)cc3)c2-c2ccncn2)CC1` (10 µM), the “number of time points” value turned out to be 0.

Regarding `O=C1NC(=O)/C(=C/c2ccc(-c3ccc(F)cc3O)o2)S1` (10 µM), the “number of time points” value turned out to be 0.

With `Cc1cc(C(C)Nc2ccccc2)c2nc(N3CCOCC3)cc(=O)n2c1` (configuration not stated) (10 µM), the “number of time points” value amounted to 0.

As for `Cc1cccc(-c2[nH]ncc2-c2ccc3ncccc3n2)n1` (10 µM), the “number of time points” value is 0.

Consider `Cc1cc2ncc(-c3ccccc3)nc2cc1C` (10 µM), for which the “number of time points” value is 0.

For the compound `COc1cc(C(=O)N2CCC(N3CCN(C)CC3)CC2)ccc1Nc1ncc2c(n1)N(C)c1ccccc1C(=O)N2C` (10 µM), the “number of time points” value was determined as 0.

For `COc1cnccc1Nc1nc(-c2nn(Cc3c(F)cc(OCCO)cc3F)c3ccccc23)ncc1OC` (10 µM), the “number of time points” value was determined as 0.

Take `C[C@@H]1COCCN1c1cc(C2([S@](C)(=N)=O)CC2)nc(-c2cc[nH]c3nccc2-3)n1` [Ceralasertib] (2.5 µM): the “number of time points” value was determined as 0.

For the compound `CC(C)C[C@H](NC(=O)[C@H](CCCCN)NC(=O)[C@H](CO)NC(=O)[C@@H](N)CC(C)C)C(N)=O` [LSKL, Inhibitor of Thrombospondin (TSP-1) (TFA)] (10 µM), the “number of time points” value worked out at 0.

In the case of `Cn1cc(-c2cc3c(N4CCN(c5ncc([C@@](C)(N)c6ccc(F)cc6)cn5)CC4)ncnn3c2)cn1` [Avapritinib] (2.5 µM), the “number of time points” value amounted to 0.

For `CC(C)(C)C(=O)N1N=CC[C@H]1c1ccccc1` (10 µM), the “number of time points” value turned out to be 0.

On to `N#Cc1ccc(-c2c(-c3ncn[nH]3)sc(N3CCOCC3)c2C#N)c(F)c1` (10 µM), for which the “number of time points” value was found to be 0.

In the case of `O=[N+]([O-])c1ccc(Sc2cccc[n+]2[O-])c2nonc12` (2.5 µM), the “number of time points” value worked out at 0.

Consider `Nc1nc2cc(-c3ccc4ncc(C(=O)N5CCOCC5)n4c3)ccc2o1` [Serabelisib] (10 µM), for which the “number of time points” value is 0.

Turning to `NCCCCCCNS(=O)(=O)c1cccc2c(Cl)cccc12` [W-7 (hydrochloride)] (10 µM), the “number of time points” value was 0.

With `COc1ccc(CCNc2ncc3c(=O)n(-c4cccc(F)c4)c(=O)[nH]c3n2)cc1OC` (2 µM), the “number of time points” value is 0.

Regarding `CCc1ccc(C(=O)COc2ccc(CC3SC(=O)NC3=O)cc2)nc1` (configuration not stated) (10 µM), the “number of time points” value worked out at 0.

For `Nc1cc(C(F)F)c(-c2nc(N3C4CCC3COC4)nc(N3C4CCC3COC4)n2)cn1` (2.5 µM), the “number of time points” value was 0.

Take `CC(C)(C)c1cc(C(c2cc3c(cc2O)OCO3)N2CCOCC2)cc(C(C)(C)C)c1O` (configuration not stated) (2.5 µM): the “number of time points” value came to 0.

Take `N#C/C(=C(/N)Sc1ccc(N)cc1)c1ccccc1C(F)(F)F` (10 µM): the “number of time points” value turned out to be 0.

For `CC(C)c1cnn2c(NCc3ccccc3-n3cccn3)nc(OC3CCCNC3)nc12` (configuration not stated) (2.5 µM), the “number of time points” value came to 0.

Take `COc1cc(C(C)=O)cc(OC)c1O` [Acetosyringone] (10 µM): the “number of time points” value was determined as 0.

Take `O=S(=O)(c1cccc2cnccc12)N1CCNCC1` (10 µM): the “number of time points” value worked out at 0.

As to `CN1C(=O)NC(Cc2c[nH]c3c(Cl)cccc23)C1=O` (racemic) [Necrostatin 2 (racemate)] (10 µM), the “number of time points” value was 0.

As to `COc1ccc2c(c1)c(C1=C(c3c[nH]c4ccccc34)C(=O)NC1=O)cn2CCCN(C)C` (10 µM), the “number of time points” value stood at 0.

`COc1cc(-c2cc(-c3cc(OC)c(OC)c(OC)c3)cc(C(F)P(=O)(OCOC(=O)C(C)(C)C)OCOC(=O)C(C)(C)C)c2)cc(OC)c1OC` (configuration not stated) [Stafia-1-dipivaloyloxymethyl ester] (2.5 µM): the “number of time points” value was 0.

In the case of `Fc1c(Br)cccc1Nc1ncnc2cc3c(cc12)OCCO3` (2.5 µM), the “number of time points” value was 0.

As for `CN(C)c1ncnc2nc[nH]c12` [6-(Dimethylamino)purine] (10 µM), the “number of time points” value was 0.

For `CN(C)Cc1cccc(N=C(c2ccccc2)c2c(O)[nH]c3cc(C(=O)N(C)C)ccc23)c1` (10 µM), the “number of time points” value is 0.

As for `Cn1cc(-c2ccc3nnc(C(F)(F)c4ccc5ncccc5c4)n3n2)cn1` (10 µM), the “number of time points” value was 0.
